Source: PubChem BioAssay AID893 (NCATS, 2007).

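Inhibition of a His-tagged, E. coli-produced human HSD17B10 is judged by how it slows the gain in NADH fluorescence from NAD+ reduction.
Each compound was run as a 15-point series from about 0.0007 to 57 µM.
Fitted half-maximal potency (AC50) from the inhibition curve; a lower value means a more potent inhibitor. The record's title names HSD17B4; its protocol and target entry give this enzyme.
Active means a well-fitted inhibition curve with a large enough effect; inconclusive means a weak, poorly fitted or top-concentration-only effect.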

Values are in µM.
These entries are mostly ones the record files as inconclusive; other results of the assay are not listed here.
A potency from a partial, single-point or poor curve is only a rough figure.
Some entries filed as inconclusive have a full curve.

Compound	fitted potency (µM)	outcome	remark
CN1CCc2cc3c(cc2C1O)OCO3 (stereo not shown)	25.12	active	-
CCOCCCn1c(=NC(C)=O)c(C(=O)OCC)cc2c(=O)n3ccccc3nc21	31.62	active	-
COCCCn1c(=NC(=O)c2ccc3c(c2)OCO3)c(C#N)cc2c(=O)n3cccc(C)c3nc21	7.943	active	-
CCCCN(C)CCn1c(=S)[nH]c2ccc(N3CCOCC3)cc2c1=O	39.81	inconclusive	inhibitor, single point
COc1ccc(-c2nc3cnc(Nc4cccc(OC)c4)nc3n(C3CC3)c2=O)cc1	2.512	inconclusive	inhibitor, full curve
Cc1ccc(Cn2c(=N)c(C(=O)NCc3ccco3)cc3c(=O)n4ccccc4nc32)cc1	25.12	active	-
COCCn1c(=O)c(-c2ccc(OC)cc2)nc2cnc(OCc3ccccc3)nc21	31.62	inconclusive	inhibitor, single point
COc1ccc2nc(N3CCC(O)CC3)c(C#N)cc2c1	39.81	inconclusive	inhibitor, single point
COc1c2ccoc2cc2oc(=O)ccc12	39.81	inconclusive	inhibitor, single point
O=c1c2ccccc2oc2ccccc12	25.12	active	-
CC(=O)CC(c1ccccc1)c1c(O)c2ccccc2oc1=O (stereo not shown)	39.81	inconclusive	inhibitor, single point
CN(C)c1ncc2ncc(=O)n(Cc3cccs3)c2n1	31.62	inconclusive	inhibitor, single point
Nc1nc2ccccc2nc1N	25.12	active	-
CN1CCN(c2ncc3nc(-c4ccccc4)c(=O)n(Cc4cccs4)c3n2)CC1	31.62	inconclusive	inhibitor, single point
COc1ncc2nc(-c3cccs3)c(=O)n(CCc3ccccc3)c2n1	19.95	active	-
O=C(NC12CC3CC(CC(C3)C1)C2)c1cc2nc(-c3ccco3)cc(C(F)(F)F)n2n1	31.62	active	-
COc1cc2c(cc1OC)CN(Cc1cccs1)CC2	39.81	inconclusive	inhibitor, single point
COCCn1c(=O)c(-c2ccc(F)cc2)nc2cnc(N3CCOCC3)nc21	31.62	inconclusive	inhibitor, single point
Cc1ccccc1CS(=O)(=O)CCC(=O)N1CCN(c2ccc(N3CCOCC3)nn2)CC1	25.12	active	-
CN1CCc2c(sc3c2C(=O)NC(c2cccc(OC(=O)c4cccs4)c2)N3)C1 (stereo not shown)	39.81	inconclusive	inhibitor, single point
O=c1c(-c2ccc(F)cc2)nc2cnc(N3CCOCC3)nc2n1CCc1ccccc1	5.012	active	-
COc1cccc2c1C(=O)c1c(O)c3c(c(O)c1C2=O)C[C@@](O)(C(C)=O)C[C@@H]3O[C@H]1C[C@H](N)[C@H](O)[C@H](C)O1	31.62	inconclusive	inhibitor, single point
O=c1c(-c2ccc(Cl)cc2)nc2cnc(N3CCOCC3)nc2n1-c1ccccc1	15.85	inconclusive	inhibitor, partial curve
COc1cccc(Cn2c(=O)cnc3cnc(Nc4ccccc4)nc32)c1	39.81	inconclusive	inhibitor, single point
O=S(=O)(O)c1ccc2cc(N=Nc3cc(S(=O)(=O)O)c4cccnc4c3O)ccc2c1	3.162	inconclusive	inhibitor, single point
O=C(COC(=O)c1cccc(S(=O)(=O)N2CCc3ccccc3C2)c1)NCc1ccco1	31.62	inconclusive	inhibitor, single point
BrCCBr	39.81	inconclusive	inhibitor, single point
N=c1c(C(=O)NCc2ccc(F)cc2)cc2c(=O)n3ccccc3nc2n1CCCN1CCOCC1	7.943	active	-
COc1cc2cc(C(c3nnnn3C(C)(C)C)N3CCc4ccccc4C3)c(=O)[nH]c2cc1OC (stereo not shown)	25.12	inconclusive	inhibitor, single point
COc1cccc(-c2cn3nc4c(nc3n2)CCCC4)c1	25.12	inconclusive	inhibitor, single point
CCN1C=C(C(=O)OC)C(c2cccc(C)c2)C(C(=O)OC)=C1	25.12	active	-
COc1ccc(OC)c(NC=C2C(=O)OC3(CCCCC3)OC2=O)c1	39.81	inconclusive	inhibitor, single point
O=C(C1CCN(c2ccc(N3CCOCC3)nn2)CC1)N1CCc2ccccc2C1	25.12	active	-
CC(=O)Nc1nc2n(n1)C(c1ccc(Cl)cc1)C=C(C)N2 (stereo not shown)	31.62	active	-
COCCOC(=O)C1=C(C)NC2=C(C(=O)CC(c3cccs3)C2)C1c1ccsc1 (stereo not shown)	31.62	inconclusive	inhibitor, single point
CCn1cc(C(=O)O)c(=O)c2cc(F)c(N3CCNCC3)cc21	39.81	inconclusive	inhibitor, single point
COc1ccc(Oc2ncc3nc(-c4ccc(Cl)cc4)c(=O)n(C[C@H]4CCCO4)c3n2)cc1	25.12	inconclusive	inhibitor, single point
O=C(Cn1ncc2c1-c1ccccc1OC2)N1CCc2ccccc21	39.81	inconclusive	inhibitor, single point
CCOC(=O)CC(=O)CSc1nc(C)nc2c1oc1ccccc12	12.59	active	-
C/C(N)=C(/C#N)C(=O)CSc1nnc(Nc2cccc(C)c2)s1	19.95	inconclusive	inhibitor, partial curve
c1ccc2c(c1)-c1cccc3c1c-2cc1ccccc13	25.12	active	-
Cn1c2c(c3ccccc31)CCNCC2	25.12	active	-
CCNc1ncc2nc(-c3cc(F)cc(F)c3)c(=O)n(C3CC3)c2n1	15.85	active	-
N#CC(C(=O)NCc1ccccc1)c1nc2ccccc2nc1N1CCCC1 (stereo not shown)	25.12	inconclusive	inhibitor, single point
CCC(=O)Nc1ccc(N2CCN(C(=O)c3ccccc3C)CC2)cc1	25.12	active	-
CCN1CC=C2C(C1)C(c1ccc(Cl)s1)C(C#N)=C(N)C2(C#N)C#N (stereo not shown)	25.12	inconclusive	inhibitor, partial curve
COCCn1c(=O)c(-c2ccccc2)nc2cnc(N(C)C)nc21	12.59	active	-
CC1=C(\C=C/C(C)=C/C=C\C(C)=C\C(=O)O)C(C)(C)CCC1	39.81	inconclusive	inhibitor, single point
O=c1c2cc(N3CCOCC3)ccc2[nH]c(=S)n1Cc1ccccn1	39.81	inconclusive	inhibitor, single point
N#Cc1cc2c(=O)n3ccccc3nc2n(Cc2cccnc2)c1=O	15.85	active	-
CC(C)OCCCn1c(=S)[nH]c2ccc(N3CCOCC3)cc2c1=O	25.12	inconclusive	inhibitor, single point
O=Cc1ccc2c(c1)OCO2	39.81	inconclusive	inhibitor, single point
N=c1oc2c3c4c(cc2cc1C(=O)Nc1ccccc1)CCCN4CCC3	25.12	inconclusive	inhibitor, single point
Cc1ccc(S(=O)(=O)c2c(N)n(NC(=O)c3ccco3)c3nc4ccccc4nc23)cc1	31.62	inconclusive	inhibitor, single point
CCNc1ncc2nc(-c3cc(F)cc(F)c3)c(=O)n(Cc3cccs3)c2n1	7.943	inconclusive	inhibitor, full curve
CN(C)Cc1ccccc1-c1cc(NCc2ccccc2)ncn1	31.62	inconclusive	inhibitor, single point